Percent effect of library compounds

Protein sequences, listed by entry. Tags and fused reporters are not part of them. Residues count along the entry.
UniProt P9WPC5, whole entry: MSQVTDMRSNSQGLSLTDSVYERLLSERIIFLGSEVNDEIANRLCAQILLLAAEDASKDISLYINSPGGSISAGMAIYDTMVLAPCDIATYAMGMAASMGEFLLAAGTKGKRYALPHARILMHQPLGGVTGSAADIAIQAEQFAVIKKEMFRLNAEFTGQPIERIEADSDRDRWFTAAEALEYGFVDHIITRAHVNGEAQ
UniProt P9WPC3, whole entry partner: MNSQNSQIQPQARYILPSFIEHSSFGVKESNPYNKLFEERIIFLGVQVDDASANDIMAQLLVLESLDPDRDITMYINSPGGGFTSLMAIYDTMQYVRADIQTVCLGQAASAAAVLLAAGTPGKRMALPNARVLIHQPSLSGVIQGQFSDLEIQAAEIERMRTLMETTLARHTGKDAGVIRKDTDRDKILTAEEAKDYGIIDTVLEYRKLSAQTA
UniProt Q4DA54, 1-478: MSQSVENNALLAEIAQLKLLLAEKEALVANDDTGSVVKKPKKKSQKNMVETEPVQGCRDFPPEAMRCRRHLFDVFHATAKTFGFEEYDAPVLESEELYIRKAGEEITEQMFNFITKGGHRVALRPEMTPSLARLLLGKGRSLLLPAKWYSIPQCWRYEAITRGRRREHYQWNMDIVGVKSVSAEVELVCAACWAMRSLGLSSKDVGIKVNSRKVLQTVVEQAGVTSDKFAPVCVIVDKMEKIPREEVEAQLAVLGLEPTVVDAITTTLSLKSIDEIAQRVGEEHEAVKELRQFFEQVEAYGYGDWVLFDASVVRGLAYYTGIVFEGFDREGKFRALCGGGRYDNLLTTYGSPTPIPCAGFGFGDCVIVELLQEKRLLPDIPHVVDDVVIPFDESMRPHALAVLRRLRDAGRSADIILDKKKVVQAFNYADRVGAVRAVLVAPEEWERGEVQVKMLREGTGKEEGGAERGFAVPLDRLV
UniProt I6X8D2, whole entry: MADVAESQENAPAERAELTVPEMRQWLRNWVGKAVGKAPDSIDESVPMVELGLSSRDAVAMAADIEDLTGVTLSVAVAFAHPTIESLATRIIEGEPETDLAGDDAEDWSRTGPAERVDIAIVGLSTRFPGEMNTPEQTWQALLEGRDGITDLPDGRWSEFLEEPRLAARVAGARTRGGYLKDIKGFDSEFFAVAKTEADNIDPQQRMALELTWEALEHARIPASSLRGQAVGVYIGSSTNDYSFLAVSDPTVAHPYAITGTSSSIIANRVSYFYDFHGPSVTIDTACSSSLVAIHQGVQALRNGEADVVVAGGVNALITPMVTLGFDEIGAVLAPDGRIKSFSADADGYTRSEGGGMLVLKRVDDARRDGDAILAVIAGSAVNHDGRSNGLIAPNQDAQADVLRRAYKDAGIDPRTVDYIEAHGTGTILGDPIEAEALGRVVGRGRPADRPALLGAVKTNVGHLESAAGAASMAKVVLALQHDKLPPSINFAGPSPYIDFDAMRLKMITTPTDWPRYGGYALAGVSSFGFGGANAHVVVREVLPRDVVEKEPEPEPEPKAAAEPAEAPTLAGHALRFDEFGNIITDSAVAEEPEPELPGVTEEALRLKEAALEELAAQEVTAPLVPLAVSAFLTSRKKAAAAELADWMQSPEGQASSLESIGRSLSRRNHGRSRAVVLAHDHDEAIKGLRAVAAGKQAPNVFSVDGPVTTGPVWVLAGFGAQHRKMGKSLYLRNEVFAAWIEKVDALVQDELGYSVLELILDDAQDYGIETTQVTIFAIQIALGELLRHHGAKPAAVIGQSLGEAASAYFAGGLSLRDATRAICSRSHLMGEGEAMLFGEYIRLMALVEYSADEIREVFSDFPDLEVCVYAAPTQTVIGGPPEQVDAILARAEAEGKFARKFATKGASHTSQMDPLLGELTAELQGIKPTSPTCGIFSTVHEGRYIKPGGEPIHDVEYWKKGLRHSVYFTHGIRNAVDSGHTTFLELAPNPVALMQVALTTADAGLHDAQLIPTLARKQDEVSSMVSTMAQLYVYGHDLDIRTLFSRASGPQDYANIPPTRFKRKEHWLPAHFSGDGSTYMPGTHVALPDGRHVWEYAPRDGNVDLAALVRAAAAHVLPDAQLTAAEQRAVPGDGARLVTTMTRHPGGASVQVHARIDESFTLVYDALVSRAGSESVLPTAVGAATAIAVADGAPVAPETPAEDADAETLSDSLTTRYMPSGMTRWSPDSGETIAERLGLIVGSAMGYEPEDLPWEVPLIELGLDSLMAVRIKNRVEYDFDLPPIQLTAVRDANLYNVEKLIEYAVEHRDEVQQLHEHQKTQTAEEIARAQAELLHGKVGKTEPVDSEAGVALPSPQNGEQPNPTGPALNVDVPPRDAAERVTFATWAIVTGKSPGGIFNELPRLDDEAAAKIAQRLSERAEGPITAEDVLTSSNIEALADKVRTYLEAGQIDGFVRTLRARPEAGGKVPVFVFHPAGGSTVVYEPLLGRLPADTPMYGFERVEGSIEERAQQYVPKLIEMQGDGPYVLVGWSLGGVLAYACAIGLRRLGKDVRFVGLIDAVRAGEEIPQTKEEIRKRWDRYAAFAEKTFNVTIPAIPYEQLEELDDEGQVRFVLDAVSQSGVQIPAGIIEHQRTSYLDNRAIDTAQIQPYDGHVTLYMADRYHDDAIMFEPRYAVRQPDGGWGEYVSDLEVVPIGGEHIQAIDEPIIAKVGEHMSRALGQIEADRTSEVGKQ
UniProt Q8IDJ8, 1-583: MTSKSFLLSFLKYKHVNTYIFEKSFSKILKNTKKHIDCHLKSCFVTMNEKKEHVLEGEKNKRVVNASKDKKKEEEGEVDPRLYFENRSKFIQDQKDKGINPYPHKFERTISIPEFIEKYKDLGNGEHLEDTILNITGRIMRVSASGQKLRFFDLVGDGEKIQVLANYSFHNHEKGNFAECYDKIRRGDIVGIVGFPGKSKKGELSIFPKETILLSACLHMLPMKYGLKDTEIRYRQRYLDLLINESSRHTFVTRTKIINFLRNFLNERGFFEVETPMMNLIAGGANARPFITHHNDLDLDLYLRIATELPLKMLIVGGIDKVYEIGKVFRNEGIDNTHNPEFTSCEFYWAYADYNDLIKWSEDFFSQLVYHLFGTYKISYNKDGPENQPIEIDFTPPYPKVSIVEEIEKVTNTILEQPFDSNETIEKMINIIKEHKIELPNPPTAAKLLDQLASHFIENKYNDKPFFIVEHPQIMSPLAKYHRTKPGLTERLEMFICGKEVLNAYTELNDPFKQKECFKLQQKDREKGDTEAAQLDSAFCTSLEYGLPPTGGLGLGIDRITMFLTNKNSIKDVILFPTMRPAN

From ChEMBL document CHEMBL3988442, “University of Dundee, Small-Polar-MMV Screening Library” (2021).

A: 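Protease assay of ClpP1P2, read by the AMC dye that it sets free. Target: ClpP1P2, Mycobacterium tuberculosis (UniProt P9WPC5 and UniProt P9WPC3). Tested at 50 µM. Higher reads as stronger inhibition, judged from the few compounds that gave an IC50. Most other retested compounds had strongly negative values. Size under these conditions: about 69,000 compounds, about 10 of them at 50% or above in at least one test.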
B: 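Assay of Toxoplasma gondii numbers, read through their beta-galactosidase reporter with a colour substrate. Compounds at 10 µM. Higher reads as fewer parasites (inferred from which compounds were picked for retests). Size under these conditions: about 67,000 compounds, about 260 of them at 50% or above in at least one test.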
C: 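Histidine-tRNA ligase, Trypanosoma cruzi CL Brener (UniProt Q4DA54). Enzyme assay of histidyl-tRNA synthetase; the read-out is not stated. Tested at 30 µM. The record gives no direction; compounds that gave an IC50 in retests scored well above the rest, so higher reads as stronger inhibition. About 69,000 compounds were tested under these conditions; 0.045% (about 31) showed 50% or more at least once.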
D: 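Polyketide synthase Pks13, Mycobacterium tuberculosis (UniProt I6X8D2). Enzyme assay of the thioesterase domain of polyketide synthase 13; the read-out is not stated. Compounds at 30 µM. Higher reads as stronger inhibition (inferred from which compounds were picked for retests). About 67,000 compounds were tested under these conditions; 0.46% (about 300) showed 50% or more at least once.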
E: 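Enzyme assay of the cytosolic lysyl-tRNA synthetase in 384-well plates, read by luminescence. Target: Lysine-tRNA ligase, Plasmodium falciparum 3D7 (UniProt Q8IDJ8). Concentration: 30 µM. Direction is inferred from only a few compounds that gave an IC50; most scored high, so higher reads as stronger inhibition. About 69,000 compounds were tested under these conditions; 0.071% (about 49) showed 50% or more at least once.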

Each number is a percent effect as filed.
The controls that fix the scale are not given in the record; negative values are as filed.
Compounds were drawn at random from those tested, without regard to their results.
A dash means the value is not listed here; it may have been measured.

compound	A	B	C	D	E
COCCN1CCCC12CCCN(c1nncs1)C2 (stereo not given)	-0.9206	-7.675	4.301	-32.28	-2.836
CN(C)c1cc(CNC(=O)c2cc(Cl)ccn2)ccn1	-32.41	-1.222	4.956	-1.657	-0.6231
CC(C)CC(=O)N1C[C@@H]2CCN(c3cnccn3)C[C@@H]2C1	-7.392	-	5.288	-9.628	2.468
CN(CCC(F)(F)F)Cc1nc2ccccc2c(=O)[nH]1	-6.57	7.949	6.806	-17.76	-0.1448
FC1(F)CCN(Cc2cccnc2)CC12CCN(c1cnccn1)C2.O=C(O)C(F)(F)F.O=C(O)C(F)(F)F.O=C(O)C(F)(F)F (stereo not given)	-	0.03906	-	-	-
CC(C)N(Cc1nc(-c2cccs2)no1)CC1CCC(=O)N1 (stereo not given)	-20.02	1.457	4	0.8674	6.856
CCc1ccc(C2CCCCCN2Cc2nc(CCOC)no2)o1 (stereo not given)	-21.05	9.848	-2.51	-0.9609	2.386
[H][C@@]12CS(=O)(=O)C[C@]1([H])N(C(=O)c1ccc(Cl)cn1)CCN2CCC	-	-6.372	-	-	-
COc1ccc(Cc2noc(C3=NN(C)C(=O)CC3)n2)cc1OC	-0.3697	9.091	5.155	10.99	4.623
O=C(O)C(F)(F)F.O=C(O)C(F)(F)F.[H][C@@]12CCN(C3CCOCC3)C[C@]1([H])OCCN(Cc1cccnc1)C2=O	-	17.62	-	-	-
c1ccc2nc(NCC3(N4CCOCC4)CCSC3)cnc2c1 (stereo not given)	10.99	-4.253	-8.374	-2.176	5.584
[H][C@]12CCN(C(=O)C3CC=CC3)[C@@]1([H])CC[C@@H](COCC1CCOCC1)O2	-	-5.997	-	-	-
c1cnc2c(c1)nc1n2[C@@H](CNC2CCOCC2)COC1	-20.88	0.7389	-0.4975	-34.59	3.029
CC(=O)N1CC2(CCN(C(=O)c3cccc4[nH]ccc34)CC2)C1	2.711	-8.134	1.935	-26.15	1.231
O=C(CN1CCOCS1(=O)=O)NCc1ccccc1	-10.25	-1.641	11.9	-26.22	1.583
CN1CCCC(CNS(=O)(=O)N2CCc3ccccc3C2)C1 (stereo not given)	-8.347	4.606	13.1	-6.518	6.452
O=C(O)C(F)(F)F.[H][C@@]12CCN(Cc3cccc(C)n3)[C@@]1([H])CCN2C(=O)c1cc(C)oc1C	-	2.876	-	-	-
CC(=O)N1CCOCC2(C1)CN(S(C)(=O)=O)CCO2 (stereo not given)	-2.507	-0.5933	1.266	-30.43	5.46
Cc1ccc(F)c(S(=O)(=O)N2CCCC2c2ccncc2)c1 (stereo not given)	18.33	-5.445	12.12	-1.633	5.303
CC(=O)NCC(=O)N1CCOC(c2cccc(N)n2)C1 (stereo not given)	18.01	-	6.923	-	-1.845
[H][C@]12CC[C@]([H])(CN(S(=O)(=O)c3ccccc3)C1)N(Cc1cscn1)C2=O	-	26.91	-	-	-
O=C(CCOc1ccc(F)cc1)N1CCCC1Cn1cccn1 (stereo not given)	-34.25	-3.509	3.468	-4.416	0.8576
CN1CC[C@H](N(Cc2ccccc2)CC2CC2)C[C@H](O)C1	-14.78	7.351	-1.156	-30.4	-0.1151
NC(=O)NC(=O)CCN1CCN(CC2CC2)c2ccccc21	-4.575	-4.204	11.39	-3.767	2.518
CC(=O)Nc1nc(CS(=O)(=O)Cc2ccccc2)cs1	-9.104	5.66	2.97	-9.627	1.31
CC1N(c2cnn(C)c2)C(=O)COC12CCN(Cc1ccco1)CC2 (stereo not given)	4.193	-	2.793	2.317	2.573
CCc1nc(CN2CCCC(N(C)Cc3nc(C)c(C)o3)C2)no1 (stereo not given)	11.65	9.312	-0.6135	11.39	-6.297
CC(C)CN(CC(O)c1ccccc1)C(=O)NC(C)C (stereo not given)	-10.13	9.829	5	-2.906	2.68
CN1CCOC(C(=O)N(C)c2ccc3c(c2)CCO3)C1 (stereo not given)	0.2436	-17.01	3.448	-27.45	4.329
O=C(NC[C@]12COC[C@H]1CN(C1CCOCC1)C2)c1ccco1	17.71	-	6.011	-22.61	-1.418
CCOCCn1c(=O)n(Cc2ccccc2F)c2cc(C(=O)O)cnc21	-18.18	-1.087	-0.5405	7.281	-0.4961
Cl.O=C(NCc1ccc(Cl)cc1)N1CCN(CC(O)C2CC2)CC1 (stereo not given)	-	8.867	-	-	-
CC(=O)NCCNC(=O)c1sc(-c2ccc(Cl)cc2)nc1C	-10.99	22.73	6.122	-15.5	-0.5166
Cn1ncc2c(NCCOc3ccc(F)cc3)nc(C3CCCC3)nc21	1.444	1.533	9.917	2.617	-3.489
Cc1cccc(NC(=O)N(CCC(F)(F)F)C[C@H](O)CO)c1	1.378	-7.323	5.882	-	3.61
COC(=O)c1sccc1CN1CCN(C(=O)c2ccc(C)o2)CC1	-0.6295	-7.183	3.333	-39.43	1.901
Cc1cc(C[C@@H]2CCC[C@H]2NCc2ccccc2F)on1	-6.956	-	10.99	-2.44	4.796
COCc1ncn2c1CN(C(=O)Nc1cccc(OC)c1)CC2	-2.919	15.35	5	-39.53	-0.8989
Cc1cn2nc(N3CCN(Cc4cc(C)on4)CC3)sc2n1	-6.787	4.066	5.07	-17.05	0.2489
CCc1nc(CN(C)C2CCN(CCc3ccccn3)C2)no1 (stereo not given)	14.11	-2.031	4.906	-5.081	-2.476
CCCn1nc2c(cc1=O)CN(C(C)C(=O)Nc1nccs1)CC2 (stereo not given)	-10.08	7.552	4.386	7.212	2.306

2 of the entries, repeated:

{"compound": "CN1CCCC(CNS(=O)(=O)N2CCc3ccccc3C2)C1", "stereo": "stereo not given", "A": -8.347, "B": 4.606, "C": 13.1, "D": -6.518, "E": 6.452}
{"compound": "CN(CCC(F)(F)F)Cc1nc2ccccc2c(=O)[nH]1", "A": -6.57, "B": 7.949, "C": 6.806, "D": -17.76, "E": -0.1448}